Amino acid sequences for entries named in this document (tags omitted).
UniProt Q00987: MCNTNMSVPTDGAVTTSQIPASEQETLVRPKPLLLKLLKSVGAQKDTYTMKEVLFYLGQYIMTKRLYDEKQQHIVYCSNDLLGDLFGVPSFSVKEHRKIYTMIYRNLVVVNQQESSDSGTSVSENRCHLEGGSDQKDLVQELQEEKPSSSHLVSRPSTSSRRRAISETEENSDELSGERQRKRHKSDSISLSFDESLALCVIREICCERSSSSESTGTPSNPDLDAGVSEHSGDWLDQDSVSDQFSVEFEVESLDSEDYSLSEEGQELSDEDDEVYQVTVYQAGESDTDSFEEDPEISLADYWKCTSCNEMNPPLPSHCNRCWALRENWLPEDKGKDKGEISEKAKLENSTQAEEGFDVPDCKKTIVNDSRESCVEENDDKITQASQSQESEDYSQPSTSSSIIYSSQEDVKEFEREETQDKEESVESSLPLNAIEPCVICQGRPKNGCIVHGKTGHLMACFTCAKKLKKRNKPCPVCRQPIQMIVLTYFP

In paper PMC7512061:

Molecular target: MDM2 (human (endogenous in NB-39-nu)) (UniProt Q00987)
Test: affinity purification with mass spectrometry; anti-MDM2 immunoprecipitates from NB-39-nu cells treated with 1 uM PF-477736 (CHK1i) or DMSO for 24 h; band of 100-150 kDa cut from a Coomassie-stained gel and analysed by LC-MS/MS

- binding: binds
B1: centrosome-associated protein 131 (CEP131) (protein, UniProt Q9UPN4 1-1083)
chain: MKGTRAIGSVPERSPAGVDLSLTGLPPPVSRRPGSAATTKPIVRSVSVVTGSEQKRKVLEATGPGGSQAINNLRRSNSTTQVSQPRSGSPRPTEPTDFLMLFEGSPSGKKRPASLSTAPSEKGATWNVLDDQPRGFTLPSNARSSSALDSPAGPRRKECTVALAPNFTANNRSNKGAVGNCVTTMVHNRYTPSERAPPLKSSNQTAPSLNNIIKAATCEGSESSGFGKLPKNVSSATHSARNNTGGSTGLPRRKEVTEEEAERFIHQVNQATVTIQRWYRHQVQRRGAGAARLEHLLQAKREEQRQRSGEGTLLDLHQQKEAARRKAREEKARQARRAAIQELQQKRALRAQKASTAERGPPENPRETRVPGMRQPAQELSPTPGGTAHQALKANNTGGGLPAAGPGDRCLPTSDSSPEPQQPPEDRTQDVLAQDAAGDNLEMMAPSRGSAKSRGPLEELLHTLQLLEKEPDVLPRPRTHHRGRYAWASEVTTEDDASSLTADNLEKFGKLSAFPEPPEDGTLLSEAKLQSIMSFLDEMEKSGQDQLDSQQEGWVPEAGPGPLELGSEVSTSVMRLKLEVEEKKQAMLLLQRALAQQRDLTARRVKETEKALSRQLQRQREHYEATIQRHLAFIDQLIEDKKVLSEKCEAVVAELKQEDQRCTERVAQAQAQHELEIKKLKELMSATEKARREKWISEKTKKIKEVTVRGLEPEIQKLIARHKQEVRRLKSLHEAELLQSDERASQRCLRQAEELREQLEREKEALGQQERERARQRFQQHLEQEQWALQQQRQRLYSEVAEERERLGQQAARQRAELEELRQQLEESSSALTRALRAEFEKGREEQERRHQMELNTLKQQLELERQAWEAGRTRKEEAWLLNREQELREEIRKGRDKEIELVIHRLEADMALAKEESEKAAESRIKRLRDKYEAELSELEQSERKLQERCSELKGQLGEAEGENLRLQGLVRQKERALEDAQAVNEQLSSERSNLAQVIRQEFEDRLAASEEETRQAKAELATLQARQQLELEEVHRRVKTALARKEEAVSSLRTQHEAAVKRADHLEELLEQHRRPTPSTK

These are yes or no findings as the source states them, for the method shown. In cells and extracts the contact can be indirect. Here binding means that the protein was enriched with, or labelled near, the bait; the list need not be complete.
